Measurements reported in patent US20110118239A1, “PREPARATION AND ENANTIOMERIC SEPARATION OF 7-(3-PYRIDINYL)-1,7-DIAZASPIRO[4.4]NONANE AND NOVEL SALT FORMS OF THE RACEMATE AND ENANTIOMERS” (Targacept, Inc., priority 2008, published 2011).
Some entries share one result that the patent states for a list of compounds.

Target: human α4β2 NNRs (Homo sapiens, UniProt P17787+P43681)
Test: Binding to α4β2 NNRs (text statement, species not stated)

Row | SMILES | Ki
1 | c1cncc(N2CC[C@]3(CCCN3)C2)c1 [Compound A, (R)-7-(3-pyridinyl)-1,7-diazaspiro[4.4]nonane] | < 0.1 µM
2 | c1cncc(N2CC[C@@]3(CCCN3)C2)c1 [Compound B, (S)-7-(3-pyridinyl)-1,7-diazaspiro[4.4]nonane] | < 0.1 µM
